PubChem BioAssay AID686938, Drosophila RNAi Screening Center | 2013
In all, the deposit lists about 23,000 reagents; this is a random part of those that have a named target and a result. Over the whole deposit, 75 (0.33%) are marked active. 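Raw plate signals without normalisation; calls rest on plate z-scores that were not deposited; ratio present for only 364 wells.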 Not stated in the record: the dose of the treatment.

Assay: 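Looking for CRAC channel components and the factors controlling them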 (primary screen)
System: Drosophila S2R+ cells
Reagents: long dsRNA against Drosophila genes, about 0.25 µg dsRNA per well, roughly 10,000 cells
Time to read-out: 5 days of knock-down before the calcium assay
Challenge: thapsigargin (SERCA pump blocker) to empty calcium stores; entry signal taken 4 min after adding it
Read-out: 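Duplicate raw fluo-4 intensities per well from a plate reader, at rest and four minutes after thapsigargin emptied calcium stores; entry-to-rest ratio filled for only some wells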
Direction: calcium entry signal: higher = stronger calcium signal after store depletion; entry to resting ratio: higher = more calcium entry relative to resting level; resting calcium signal: higher = higher resting calcium signal
Call rule: 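Called when the plate z-score of the entry-to-rest ratio, mean of duplicates, falls below −3; wells with low overall dye signal (Fmax z below −2) or more than five off-targets excluded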
Meaning of the calls: active = strongly reduced calcium entry; inactive = no strong reduction

The opening 2 records, ahead of the listing:
| gene | dsRNA | calcium entry signal, replicate 1 (fluorescence units) | calcium entry signal, replicate 2 (fluorescence units) | entry to resting ratio | resting calcium signal, replicate 1 (fluorescence units) | resting calcium signal, replicate 2 (fluorescence units) | activity call |
| --- | --- | --- | --- | --- | --- | --- | --- |
| AGBE (1,4-Alpha-Glucan Branching Enzyme) | DRSC06861 | 4.79e7 | 4.11e7 | – | 2.41e7 | 2.03e7 | inactive |
| RpL24-like (Ribosomal protein L24-like) | DRSC16111 | 2.18e7 | 2.34e7 | – | 1.42e7 | 1.52e7 | inactive |

Results, from the first entry:
| gene | dsRNA | calcium entry signal, replicate 1 (fluorescence units) | calcium entry signal, replicate 2 (fluorescence units) | entry to resting ratio | resting calcium signal, replicate 1 (fluorescence units) | resting calcium signal, replicate 2 (fluorescence units) | activity call |
| --- | --- | --- | --- | --- | --- | --- | --- |
| AGBE (1,4-Alpha-Glucan Branching Enzyme) | DRSC06861 | 4.79e7 | 4.11e7 | – | 2.41e7 | 2.03e7 | inactive |
| RpL24-like (Ribosomal protein L24-like) | DRSC16111 | 2.18e7 | 2.34e7 | – | 1.42e7 | 1.52e7 | inactive |
| CG14411 | DRSC19597 | 3.72e7 | 3.59e7 | – | 2.02e7 | 1.47e7 | inactive |
| grn (grain) | DRSC12666 | 2.82e7 | 6.26e7 | – | 1.70e7 | 2.88e7 | inactive |
| grn (grain) | DRSC16961 | 5.17e7 | 3.99e7 | – | 2.50e7 | 1.78e7 | inactive |
| Gasp | DRSC12349 | 3.27e7 | 4.20e7 | – | 1.47e7 | 1.94e7 | inactive |
| vls (valois) | DRSC02101 | 3.21e7 | – | – | 1.92e7 | – | inactive |
| CG13919 | DRSC08388 | 3.71e7 | 5.08e7 | – | 1.90e7 | 2.07e7 | inactive |
| RhoGEF2 (Rho guanine nucleotide exchange factor 2) | DRSC07531 | 4.36e7 | 3.51e7 | – | 1.82e7 | 1.67e7 | inactive |
| HLH4C (Helix loop helix protein 4C) | DRSC18670 | 4.58e7 | 5.26e7 | – | 2.08e7 | 2.53e7 | inactive |
| HLH4C (Helix loop helix protein 4C) | DRSC21322 | 2.22e7 | 2.93e7 | – | 1.21e7 | 1.33e7 | inactive |
| CG15615 | DRSC06568 | 3.37e7 | 4.59e7 | – | 1.52e7 | 2.18e7 | inactive |
| Obp19d (Odorant-binding protein 19d) | DRSC20569 | 4.88e7 | 4.40e7 | – | 2.34e7 | 1.88e7 | inactive |
| GstE14 (Glutathione S transferase E14) | DRSC06881 | 2.72e7 | 4.41e7 | – | 1.51e7 | 1.84e7 | inactive |
| sta (stubarista) | DRSC18838 | 1.78e7 | 2.05e7 | 1.6 | 1.11e7 | 1.10e7 | inactive |
| Glo1 (Glyoxalase 1) | DRSC06657 | 3.50e7 | 4.49e7 | – | 1.55e7 | 1.94e7 | inactive |
| Dolk (Dolichol kinase) | DRSC07143 | 4.97e7 | 7.58e7 | – | 2.30e7 | 3.42e7 | inactive |
| CG13133 | DRSC02230 | 5.74e7 | 5.60e7 | – | 1.84e7 | 2.26e7 | inactive |
| firl (firelighter) | DRSC02428 | 3.36e7 | 2.08e7 | – | 1.56e7 | 9.86e6 | inactive |
| CG2200 | DRSC19840 | 3.15e7 | 4.25e7 | – | 1.65e7 | 2.04e7 | inactive |
| CG14667 | DRSC12253 | 3.18e7 | 2.95e7 | – | 1.69e7 | 1.50e7 | inactive |
| Cdk5alpha (Cdk5 activator-like protein) | DRSC03290 | 2.99e7 | 4.26e7 | – | 1.46e7 | 1.93e7 | inactive |
| Cdk5alpha (Cdk5 activator-like protein) | DRSC23301 | 3.38e7 | 4.50e7 | – | 1.44e7 | 1.87e7 | inactive |
| ClpP (Caseinolytic protease proteolytic subunit) | DRSC02806 | 4.76e7 | – | – | 2.54e7 | – | inactive |
